Test results: article PMC10177328, “High Intrinsic Oncogenic Potential in the Myc-Box-Deficient Hydra Myc3 Protein”
For at least one entry, the source does not settle the construct or the ends of the probe. At least one verdict rests on a figure or table, not on a statement of the authors. Where a protein sequence is shown, tags need not be part of it.

Target: T1, Hydra Max bHLH-LZ (p13) (UniProt D0EM50)
T1 sequence (looked up): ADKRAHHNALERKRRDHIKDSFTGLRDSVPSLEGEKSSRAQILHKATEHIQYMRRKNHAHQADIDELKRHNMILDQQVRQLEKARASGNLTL
Assay: EMSA
Conditions: homodimer, 2 uM protein; EMSA: 10 mM Tris-HCl pH 7.5, 0.5 mM EDTA, 65 mM KCl, 5 mM MgCl2, 1 mM DTT, 100 ug/mL BSA, 10% glycerol, 25 C, 45 min; native 6% PAGE; recombinant protein; residues 29-120; protein details: N-terminal initiator Met, C-terminal His6; label: 32P

Sequence: ATAGCTCACGTGTCAATA (double strand) [myc2 promoter E-box 18-mer]
- binding result: binds
